The source of these data is PMC10847126.

By UniProt entry, the sequences of proteins in these tests, tags left out. Where a name states a change or a piece, a line headed by the entry shows the natural chain unless it says otherwise. Chains listed by the source or under a name are the forms on record and can include a tag or linker.
UniProt F7J0M4: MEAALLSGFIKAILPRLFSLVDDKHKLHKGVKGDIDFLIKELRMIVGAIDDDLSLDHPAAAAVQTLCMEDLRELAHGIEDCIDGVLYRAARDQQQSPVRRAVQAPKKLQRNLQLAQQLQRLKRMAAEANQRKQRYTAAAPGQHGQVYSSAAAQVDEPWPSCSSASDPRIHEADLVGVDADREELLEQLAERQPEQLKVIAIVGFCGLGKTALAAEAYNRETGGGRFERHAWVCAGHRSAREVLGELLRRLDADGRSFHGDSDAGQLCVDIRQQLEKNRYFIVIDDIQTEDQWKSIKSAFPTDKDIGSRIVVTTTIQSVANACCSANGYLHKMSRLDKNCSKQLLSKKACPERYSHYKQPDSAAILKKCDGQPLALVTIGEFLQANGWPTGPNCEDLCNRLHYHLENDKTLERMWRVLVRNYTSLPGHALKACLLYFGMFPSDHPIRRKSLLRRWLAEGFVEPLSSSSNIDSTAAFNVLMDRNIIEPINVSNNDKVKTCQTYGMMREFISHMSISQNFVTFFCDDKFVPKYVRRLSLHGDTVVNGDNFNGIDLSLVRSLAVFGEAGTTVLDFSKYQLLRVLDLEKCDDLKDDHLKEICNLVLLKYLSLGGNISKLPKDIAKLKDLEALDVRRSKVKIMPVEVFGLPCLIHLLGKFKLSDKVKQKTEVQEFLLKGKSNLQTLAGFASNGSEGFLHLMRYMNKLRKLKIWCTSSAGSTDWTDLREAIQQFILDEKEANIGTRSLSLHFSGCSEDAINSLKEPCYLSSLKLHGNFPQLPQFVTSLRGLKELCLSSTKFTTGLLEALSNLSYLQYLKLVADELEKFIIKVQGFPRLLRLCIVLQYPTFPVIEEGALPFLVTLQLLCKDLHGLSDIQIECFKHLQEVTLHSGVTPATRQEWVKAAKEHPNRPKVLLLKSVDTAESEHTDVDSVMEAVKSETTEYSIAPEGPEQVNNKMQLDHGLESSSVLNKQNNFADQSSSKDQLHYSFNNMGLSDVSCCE
RGA5-HMA3 (expressed in N. benthamiana) (F7J0N2, form named): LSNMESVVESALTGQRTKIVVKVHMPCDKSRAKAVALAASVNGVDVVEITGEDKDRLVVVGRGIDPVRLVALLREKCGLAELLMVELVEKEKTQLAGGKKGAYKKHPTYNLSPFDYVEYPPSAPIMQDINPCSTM
RGA5-HMA4 (expressed in N. benthamiana) (F7J0N2, form named): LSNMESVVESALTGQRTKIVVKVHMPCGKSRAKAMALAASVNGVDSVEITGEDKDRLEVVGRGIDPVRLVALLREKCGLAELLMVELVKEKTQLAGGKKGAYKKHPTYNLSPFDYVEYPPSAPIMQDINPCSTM
RGA5-HMA5 (expressed in N. benthamiana) (F7J0N2, form named): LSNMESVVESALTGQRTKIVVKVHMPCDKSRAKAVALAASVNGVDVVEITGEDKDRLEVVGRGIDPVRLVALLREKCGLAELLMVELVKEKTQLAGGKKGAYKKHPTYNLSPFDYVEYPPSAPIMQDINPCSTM

No constants are given. Whether binding was seen depends on the method and setting. In cells and extracts the contact can be indirect.

For the experiment, the target named is RGA4 (rice) (UniProt F7J0M4). Put plainly: co-IP; RGA5 HMA domains with AVR-PikD and RGA4 in N. benthamiana, RGA4 tested with or without AVR-PikD (Supplementary Fig. 2).
For the substance “RGA5-HMA3 (expressed in N. benthamiana) (from UniProt F7J0N2 982-1116) (domain or fragment)”, the binding entry is “no binding”.
As to “RGA5-HMA4 (expressed in N. benthamiana) (from UniProt F7J0N2 982-1116) (domain or fragment)”, the binding result is “no binding”.
The value for “RGA5-HMA5 (expressed in N. benthamiana) (from UniProt F7J0N2 982-1116) (domain or fragment)” was “no binding”.
